Source: the odorant receptor screen of Mainland et al. (2015)
“And” between values parts separate entries of the source, which are not always exact repeats. Equal values may be shown once. This is one part of the list. Single wells; the ratio to wells without odorant was worked out here, and repeats agree poorly.

Tests used:
Assay in all cases: odorant receptor activation (CRE luciferase / Renilla) (fold of no-odor wells); higher = more activation
Conditions in all cases: 100 µM
OR6C3 clone 1424 = system: OR6C3 clone 1424
OR6C4 I37V clone 1412 = system: OR6C4 I37V clone 1412
OR6C6 clone 1426 = system: OR6C6 clone 1426
OR6C65 clone 1459 = system: OR6C65 clone 1459
OR6C68 A45T clone 1451 = system: OR6C68 A45T clone 1451
OR6C70 clone 1427 = system: OR6C70 clone 1427
OR6C74 clone 1441 = system: OR6C74 clone 1441
OR6C75 clone 1519 = system: OR6C75 clone 1519
OR6C76 clone 1414 = system: OR6C76 clone 1414
OR6F1 clone 1039 = system: OR6F1 clone 1039

`CC(C)C(=O)O` [isobutyric acid] gave an odorant receptor activation (OR6C3 clone 1424) of 0.707, an odorant receptor activation (OR6C4 I37V clone 1412) of 0.719 and an odorant receptor activation (OR6C6 clone 1426) of 0.856. For the same molecule, the odorant receptor activation (OR6C65 clone 1459) was 1.13 and 0.972, the odorant receptor activation (OR6C68 A45T clone 1451) was 0.898 and the odorant receptor activation (OR6C70 clone 1427) was 0.82. The odorant receptor activation (OR6C74 clone 1441) was 0.693, the odorant receptor activation (OR6C75 clone 1519) was 1.2 and 1.13 and the odorant receptor activation (OR6C76 clone 1414) was 0.648. For the same molecule, the odorant receptor activation (OR6F1 clone 1039) was 1.28.
`COC(=O)c1ccccc1` [methyl benzoate] was tested, and the odorant receptor activation (OR6C3 clone 1424) was 0.881, the odorant receptor activation (OR6C4 I37V clone 1412) was 0.858 and the odorant receptor activation (OR6C6 clone 1426) was 0.615. For the same molecule, the odorant receptor activation (OR6C65 clone 1459) was 0.851 and 1.37, the odorant receptor activation (OR6C70 clone 1427) was 1.07 and the odorant receptor activation (OR6C74 clone 1441) was 1.03. The odorant receptor activation (OR6C75 clone 1519) was 1.14 and 0.952, the odorant receptor activation (OR6C76 clone 1414) was 0.698 and the odorant receptor activation (OR6F1 clone 1039) was 1.61.
For `CC(C)(C)c1ccc(CCC=O)cc1` [bourgeonal], the odorant receptor activation (OR6C3 clone 1424) was 0.171, the odorant receptor activation (OR6C4 I37V clone 1412) was 0.157 and the odorant receptor activation (OR6C6 clone 1426) was 0.168. The odorant receptor activation (OR6C65 clone 1459) was 1.16, the odorant receptor activation (OR6C70 clone 1427) was 0.18 and the odorant receptor activation (OR6C74 clone 1441) was 0.117. It also gave an odorant receptor activation (OR6C75 clone 1519) of 1.07, an odorant receptor activation (OR6C76 clone 1414) of 0.145 and an odorant receptor activation (OR6F1 clone 1039) of 0.859.
For `CCCCCCCCC=O` [nonyl aldehyde], the odorant receptor activation (OR6C3 clone 1424) was 0.91, the odorant receptor activation (OR6C4 I37V clone 1412) was 1.06 and the odorant receptor activation (OR6C6 clone 1426) was 1.07. For the same molecule, the odorant receptor activation (OR6C65 clone 1459) was 1, the odorant receptor activation (OR6C68 A45T clone 1451) was 1.43 and the odorant receptor activation (OR6C70 clone 1427) was 0.984. The odorant receptor activation (OR6C74 clone 1441) was 0.948, the odorant receptor activation (OR6C75 clone 1519) was 0.988 and the odorant receptor activation (OR6C76 clone 1414) was 0.727. It also gave an odorant receptor activation (OR6F1 clone 1039) of 0.974.
In the case of `C=CCSCC=C` [diallyl sulfide], the odorant receptor activation (OR6C3 clone 1424) is reported as 1.01, the odorant receptor activation (OR6C4 I37V clone 1412) is reported as 1.06 and the odorant receptor activation (OR6C6 clone 1426) is reported as 1.2. It also gave an odorant receptor activation (OR6C65 clone 1459) of 1.07, an odorant receptor activation (OR6C68 A45T clone 1451) of 1.04 and an odorant receptor activation (OR6C70 clone 1427) of 0.942. For the same molecule, the odorant receptor activation (OR6C74 clone 1441) was 1.2, the odorant receptor activation (OR6C75 clone 1519) was 1.27 and the odorant receptor activation (OR6C76 clone 1414) was 0.983. It also gave an odorant receptor activation (OR6F1 clone 1039) of 1.11.
`CC1=NC(C)SC1C` (stereo not given) gave an odorant receptor activation (OR6C3 clone 1424) of 1.01, an odorant receptor activation (OR6C4 I37V clone 1412) of 0.996 and an odorant receptor activation (OR6C6 clone 1426) of 1.01. For the same molecule, the odorant receptor activation (OR6C65 clone 1459) was 0.912 and 1.09, the odorant receptor activation (OR6C70 clone 1427) was 1.26 and the odorant receptor activation (OR6C74 clone 1441) was 1.35. The odorant receptor activation (OR6C75 clone 1519) was 1.17 and 0.893, the odorant receptor activation (OR6C76 clone 1414) was 1.22 and the odorant receptor activation (OR6F1 clone 1039) was 0.856.
For `CC1CCC(C(C)C)C(O)C1` (single isomer, unassigned; (-)) [(-)-menthol], the odorant receptor activation (OR6C3 clone 1424) was 0.512, the odorant receptor activation (OR6C4 I37V clone 1412) was 1.02 and the odorant receptor activation (OR6C6 clone 1426) was 0.979. For the same molecule, the odorant receptor activation (OR6C65 clone 1459) was 4.96, the odorant receptor activation (OR6C68 A45T clone 1451) was 0.866 and the odorant receptor activation (OR6C70 clone 1427) was 1.11. For the same molecule, the odorant receptor activation (OR6C74 clone 1441) was 0.898, the odorant receptor activation (OR6C75 clone 1519) was 5.72 and the odorant receptor activation (OR6C76 clone 1414) was 0.535. The odorant receptor activation (OR6F1 clone 1039) was 3.27.
In the case of `C=C(C)C1CCC2=CC(=O)CC(C)C2(C)C1` (stereo not given) [amyl laurate], the odorant receptor activation (OR6C68 A45T clone 1451) is reported as 0.692.
In the case of `COC(=O)c1ccccc1O` [methyl salicylate], the odorant receptor activation (OR6C3 clone 1424) is reported as 0.961, the odorant receptor activation (OR6C4 I37V clone 1412) is reported as 1.18 and the odorant receptor activation (OR6C6 clone 1426) is reported as 1.59. For the same molecule, the odorant receptor activation (OR6C65 clone 1459) was 1.09, the odorant receptor activation (OR6C68 A45T clone 1451) was 0.801 and the odorant receptor activation (OR6C70 clone 1427) was 1.21. The odorant receptor activation (OR6C74 clone 1441) was 1.01, the odorant receptor activation (OR6C75 clone 1519) was 0.959 and the odorant receptor activation (OR6C76 clone 1414) was 0.923. For the same molecule, the odorant receptor activation (OR6F1 clone 1039) was 0.988.
`O=C1CCCCC1` [Cyclohexanone] gave an odorant receptor activation (OR6C3 clone 1424) of 0.873, an odorant receptor activation (OR6C4 I37V clone 1412) of 0.901 and an odorant receptor activation (OR6C6 clone 1426) of 0.845. The odorant receptor activation (OR6C65 clone 1459) was 0.755 and 1.19, the odorant receptor activation (OR6C70 clone 1427) was 1.36 and the odorant receptor activation (OR6C74 clone 1441) was 1.16. For the same molecule, the odorant receptor activation (OR6C75 clone 1519) was 1.13 and 0.846, the odorant receptor activation (OR6C76 clone 1414) was 0.866 and the odorant receptor activation (OR6F1 clone 1039) was 0.934.
Molecule `CC1COCc2cc3c(cc21)C(C)(C)C(C)C3(C)C` (stereo not given) [galaxolide] has an odorant receptor activation (OR6C3 clone 1424) of 3.49, an odorant receptor activation (OR6C4 I37V clone 1412) of 4.18 and an odorant receptor activation (OR6C6 clone 1426) of 3.92. For the same molecule, the odorant receptor activation (OR6C68 A45T clone 1451) was 0.245 and 0.54, the odorant receptor activation (OR6C70 clone 1427) was 2.45 and the odorant receptor activation (OR6C74 clone 1441) was 2.95. It also gave an odorant receptor activation (OR6C76 clone 1414) of 3.96 and an odorant receptor activation (OR6F1 clone 1039) of 7.79.
Molecule `O=C1CCCCCCCCCCCCCCO1` [pentadecalactone] has an odorant receptor activation (OR6C3 clone 1424) of 1.2, an odorant receptor activation (OR6C4 I37V clone 1412) of 0.899 and an odorant receptor activation (OR6C6 clone 1426) of 1.22. For the same molecule, the odorant receptor activation (OR6C65 clone 1459) was 0.922, the odorant receptor activation (OR6C68 A45T clone 1451) was 0.96 and the odorant receptor activation (OR6C70 clone 1427) was 1.18. The odorant receptor activation (OR6C74 clone 1441) was 1.41, the odorant receptor activation (OR6C75 clone 1519) was 0.838 and the odorant receptor activation (OR6C76 clone 1414) was 0.972. It also gave an odorant receptor activation (OR6F1 clone 1039) of 0.749.
